Some results were stated once for a whole list of compounds, not compound by compound. For at least one compound, name, drawing or mass did not settle the structure. Some ranges recur; such a range may be that of the whole group of compounds.
Legend:
Format in all cases: cell-based
[1] = system: c2c12 myotubes; assay: Fatty acid oxidation (FAO) in c2c12 myotubes, Example 1; conditions: leucine 0-0.5 mM, KIC 0-0.5 mM, HMB 0-50 μM
Method: We have shown that catabolic systems are also stimulated to fuel this process, resulting in increased mitochondrial biogenesis and fatty acid oxidation (FAO). To address the mechanism of this effect, we first determined its mTOR-dependence by assessing leucine stimulation of FAO in the presence and absence of 20 nM rapamycin; although rapamycin inhibited FAO in c2c12 myotubes, the degree of leucine stimulation was preserved (˜50%, p<0.03; FIG. 1).
We next investigated the role of intact leucine (0-0.5 mM) vs. its metabolites, α-ketoisocaproic acid (KIC) (0-0.5 mM) and HMB (0-50 μM). […] Both leucine and HMB increased myotube mitochondrial biogenesis (assessed fluorometrically via NAO binding) by ˜50%, (p<0.005, FIG. 3).

[2] = system: SIRT1; assay: Sirt1 activity (fluorimetric kit), Example 5; conditions: leucine 0.5 mM, HMB 5 μM, resveratrol 200 nM; summary in Example 5
Method: Sirt1 Activity: SIRT1 activity was measured by using the SIRT1 Fluorimetric Drug Discovery Kit (BML-AK555, ENZO Life Sciences International, Inc. PA, USA). The assay measures SIRT1 activity by the degree of deacetylation of a standardized substrate containing an acetylated lysine side chain. The substrate utilized is a peptide containing […] of human […]]), an established target of SIRT1 activity; SIRT1 activity is directly proportional to the degree of deacetylation of […]. Samples were incubated with peptide substrate (25 μM), and NAD^+ (500 μM) in a phosphate-buffered saline solution at 37° C. on a horizontal shaker for 45 minutes. The reaction was stopped with the addition of 2 mM nicotinamide and a developing solution that binds to the deacetylated lysine to form a fluorophore.

[3] = system: Adipocytes (3T3-L1); assay: Fatty acid oxidation (3H-palmitate) in 3T3-L1 adipocytes; conditions: leucine 0.5 mM, HMB 5 μM, resveratrol 200 nM; summary in Example 5
Method: High glucose medium reduced fatty acid oxidation by 46% (p<0.05).
Fatty acid oxidation was measured using ^3H-labeled palmitate oxidation, with the ^3H label trapped as water as a result of the fat oxidation. The ^3H was then measured via scintillation counter.

SMILES: CC(C)(O)CC(=O)O [HMB]
- increase in FAO [1]: 60-70%
- stimulation of Sirt1 activity [2]: 30-50%
- stimulation of fatty acid oxidation [3]: 30-50%
